The source of these data is patent publication US20080280834A1, “Compounds and methods for inhibiting apoptosis” (University of Pittsburgh of the Commonwealth System of …, priority 2005, published 2008).

Chains of the proteins cited; added tags and fusions are not shown. Lines headed by an entry give the natural chain unless they say otherwise; changes in a name come on top. Residues count along the entry.
UniProt P25445, residues 26-173: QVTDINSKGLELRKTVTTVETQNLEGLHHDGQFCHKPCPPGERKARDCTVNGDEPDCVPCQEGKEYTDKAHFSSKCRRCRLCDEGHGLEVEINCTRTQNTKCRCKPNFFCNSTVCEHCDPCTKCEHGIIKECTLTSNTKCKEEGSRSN
UniProt P08581, residues 25-307: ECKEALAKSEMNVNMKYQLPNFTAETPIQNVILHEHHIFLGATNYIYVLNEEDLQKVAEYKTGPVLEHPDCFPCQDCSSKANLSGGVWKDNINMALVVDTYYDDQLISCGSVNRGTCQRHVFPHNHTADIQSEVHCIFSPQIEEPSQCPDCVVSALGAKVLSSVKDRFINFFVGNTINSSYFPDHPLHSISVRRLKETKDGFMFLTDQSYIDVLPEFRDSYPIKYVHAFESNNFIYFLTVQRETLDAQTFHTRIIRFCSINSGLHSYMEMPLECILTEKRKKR

These are yes or no findings as the source states them, for the method shown. Some results given as binding are weak or reduced against the parent protein; the word gives no strength.

This assay concerns the target Recombinant Human Fas/TNFRSF6/Fc Chimera (human) (UniProt P25445). In words: initial studies, method not described.

On to “α-Met (from UniProt P08581 25-307) (receptor)”, for which the binding entry is reported as “binds”.
